Laboratory results: PubChem BioAssay AID504764 (Drosophila RNAi Screening Center, 2011)
Test: 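Genes whose knock-down alters Notch-dependent transcription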 (primary screen). Cell system: Drosophila Kc167 cells. Reagent: long dsRNA against Drosophila genes. Duration: about 5 days (4 days dsRNA, then 24 h after transfection). Challenge: transfection of constitutively active membrane-tethered Notch lacking the extracellular domain, read 24 h later. Measurement: 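Firefly luciferase from an E(spl)m3 reporter with active Notch, plus control-promoter and uninduced reporter wells for normalisation; unnormalised counts, duplicate wells a and b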. Direction: induced reporter light, run 1, well a and induced reporter light, run 1, well b: higher = more light from the Notch target reporter with active Notch; control promoter light, run 1, well a and control promoter light, run 1, well b: higher = more light from the viral control promoter (cell number, transfection, viability); uninduced reporter light, run 1, well a: higher = more light from the Notch target reporter without active Notch. Hit rule: 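Hit if the duplicate-averaged log2 ratio of induced to control-promoter light gives a plate-wise z beyond ±2, or induced to uninduced beyond ±1.8; weak-control or discordant-duplicate wells dropped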. Meaning of the calls: active = modifier hit (raised or lowered Notch signal); inactive = not a hit.
In all, the deposit lists about 22,000 reagents; this is a random part of those with a known target gene and a result. Of all reagents, 403 (1.9%) got an active call. 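Unnormalised raw counts per well; ratio z-scores behind the hit calls and whether each hit raises or lowers signal are not deposited.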 A plus sign joins genes that one reagent is predicted to hit. Not stated in the record: the amount of reagent.

With knock-down of LysD + LysC (retired record) [DRSC08674] the results were induced reporter light, run 1, well a = 1.29e5; induced reporter light, run 1, well b = 1.74e5; control promoter light, run 1, well a = 2.05e5; control promoter light, run 1, well b = 1.36e5; uninduced reporter light, run 1, well a = 6600; inactive. For Prx1 (Peroxiredoxin 1) [DRSC10741] the deposit lists induced reporter light, run 1, well a = 1.72e5; induced reporter light, run 1, well b = 1.99e5; control promoter light, run 1, well a = 2.34e5; control promoter light, run 1, well b = 2.03e5; uninduced reporter light, run 1, well a = 11970; inactive. With knock-down of RyR (Ryanodine receptor) [DRSC07543] the results were induced reporter light, run 1, well a = 2.38e5; induced reporter light, run 1, well b = 1.63e5; control promoter light, run 1, well a = 1.99e5; control promoter light, run 1, well b = 1.95e5; uninduced reporter light, run 1, well a = 19380; inactive. After knock-down of CG7600 [DRSC09681], the screen gave induced reporter light, run 1, well a = 1.52e5; induced reporter light, run 1, well b = 89550; control promoter light, run 1, well a = 70670; control promoter light, run 1, well b = 26125; uninduced reporter light, run 1, well a = 10620; inactive. Depletion of CG11379 [DRSC18629] resulted in: induced reporter light, run 1, well a = 1.23e5; induced reporter light, run 1, well b = 1.10e5; control promoter light, run 1, well a = 2.32e5; control promoter light, run 1, well b = 2.57e5; uninduced reporter light, run 1, well a = 8885; inactive. Against CG15036 [DRSC17968], the entry reads induced reporter light, run 1, well a = 74240; induced reporter light, run 1, well b = 99195; control promoter light, run 1, well a = 1.63e5; control promoter light, run 1, well b = 1.35e5; uninduced reporter light, run 1, well a = 8195; inactive.

Gr10a (Gustatory receptor 10a) [DRSC18897] showed induced reporter light, run 1, well a = 1.01e5; induced reporter light, run 1, well b = 1.02e5; control promoter light, run 1, well a = 1.30e5; control promoter light, run 1, well b = 1.08e5; uninduced reporter light, run 1, well a = 7415; inactive. CG14086 [DRSC10090] showed induced reporter light, run 1, well a = 1.33e5; induced reporter light, run 1, well b = 1.27e5; control promoter light, run 1, well a = 1.37e5; control promoter light, run 1, well b = 1.07e5; uninduced reporter light, run 1, well a = 8265; inactive. Knock-down of CG12206 [DRSC17828] resulted in: induced reporter light, run 1, well a = 1.17e5; induced reporter light, run 1, well b = 1.07e5; control promoter light, run 1, well a = 1.61e5; control promoter light, run 1, well b = 1.79e5; uninduced reporter light, run 1, well a = 8230; inactive. Against ZIPIC (Zinc-finger protein interacting with CP190) [DRSC16349], the entry reads induced reporter light, run 1, well a = 2.01e5; induced reporter light, run 1, well b = 2.11e5; control promoter light, run 1, well a = 2.57e5; control promoter light, run 1, well b = 2.72e5; uninduced reporter light, run 1, well a = 16470; inactive. For mei-38 (meiotic 38) [DRSC18564] the deposit lists induced reporter light, run 1, well a = 1.07e5; induced reporter light, run 1, well b = 1.09e5; control promoter light, run 1, well a = 1.68e5; control promoter light, run 1, well b = 2.30e5; uninduced reporter light, run 1, well a = 7510; inactive. Against Got2 (Glutamate oxaloacetate transaminase 2) [DRSC00643], the values are induced reporter light, run 1, well a = 1.96e5; induced reporter light, run 1, well b = 2.25e5; control promoter light, run 1, well a = 2.02e5; control promoter light, run 1, well b = 2.21e5; uninduced reporter light, run 1, well a = 18880; inactive.

Silencing of Ada3 (transcriptional Adaptor 3) [DRSC20321] resulted in: induced reporter light, run 1, well a = 62310; induced reporter light, run 1, well b = 56800; control promoter light, run 1, well a = 88770; control promoter light, run 1, well b = 70300; uninduced reporter light, run 1, well a = 11600; inactive. For Ada3 (transcriptional Adaptor 3) [DRSC20322], the values are induced reporter light, run 1, well a = 72445; induced reporter light, run 1, well b = 53335; control promoter light, run 1, well a = 68970; control promoter light, run 1, well b = 75650; uninduced reporter light, run 1, well a = 9810; inactive. For CG8664 [DRSC20116], the values are induced reporter light, run 1, well a = 1.03e5; induced reporter light, run 1, well b = 71165; control promoter light, run 1, well a = 1.06e5; control promoter light, run 1, well b = 85800; uninduced reporter light, run 1, well a = 14190; inactive. With knock-down of mRpS17 (mitochondrial ribosomal protein S17) [DRSC04463], the record shows induced reporter light, run 1, well a = 2.24e5; induced reporter light, run 1, well b = 1.80e5; control promoter light, run 1, well a = 2.07e5; control promoter light, run 1, well b = 1.96e5; uninduced reporter light, run 1, well a = 13220; inactive. Silencing of CG13051 [DRSC09932] came out at: induced reporter light, run 1, well a = 2.67e5; induced reporter light, run 1, well b = 2.46e5; control promoter light, run 1, well a = 3.00e5; control promoter light, run 1, well b = 2.09e5; uninduced reporter light, run 1, well a = 9075; inactive. After knock-down of phol (pleiohomeotic like) [DRSC10367] the results were induced reporter light, run 1, well a = 1.04e5; induced reporter light, run 1, well b = 1.22e5; control promoter light, run 1, well a = 70295; control promoter light, run 1, well b = 38490; uninduced reporter light, run 1, well a = 9330; inactive.

Targets listed so far whose gene name starts with P or p:
Prx1 (Peroxiredoxin 1) [DRSC10741]: induced reporter light, run 1, well a = 1.72e5; induced reporter light, run 1, well b = 1.99e5; control promoter light, run 1, well a = 2.34e5; control promoter light, run 1, well b = 2.03e5; uninduced reporter light, run 1, well a = 11970; outcome = inactive
phol (pleiohomeotic like) [DRSC10367]: induced reporter light, run 1, well a = 1.04e5; induced reporter light, run 1, well b = 1.22e5; control promoter light, run 1, well a = 70295; control promoter light, run 1, well b = 38490; uninduced reporter light, run 1, well a = 9330; outcome = inactive
